According to the supplement of paper PMC6078165:
The reference is the same well before dosing, and untreated signal decays as well.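 Cells used are triple-negative breast cancer lines, either basal-like or mesenchymal-like, grown in the absence of fibroblasts. Lower red signal means mitochondrial integrity is lost, a surrogate for apoptosis.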

Legend:
MDAMB436 = test: relative JC-1 red fluorescence (viability) vs pre-drug, monoculture (fraction); higher = more viable cancer cells; conditions: coculture fibroblast: none (monoculture)
Description: (§1)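 JC-1 labelled TNBC cells grown in monoculture (density kept equal with unlabelled cancer cells) in 384-well plates in FluoroBrite medium, treated with one of 42 anticancer drugs at 0.1, 1, 10 or 100 uM. JC-1 red fluorescence (mitochondrial integrity, surrogate of apoptotic death) was read by plate reader every 8 h for 72 h. Values are normalised to each well's pre-drug value, with background from alamethicin. The stock of one drug was tenfold lower, so its dose labels may be too high. Monoculture values are repeated alongside each fibroblast plate and are averaged here.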

MDAMB231 = test: as above; conditions: coculture fibroblast: none (monoculture)
Description: as §1

CO[C@@]12[C@H](COC(N)=O)C3=C(C(=O)C(C)=C(N)C3=O)N1C[C@@H]1N[C@@H]12 [Mitomycin C]
relative JC-1 red fluorescence
Conditions | 8 h | 16 h | 24 h | 32 h | 40 h | 48 h | 56 h | 64 h | 72 h
MDAMB231, 0.1 µM | 0.7 | 0.7062 | 0.504 | 0.563 | 0.512 | 0.48 | 0.435 | 0.445 | 0.438
MDAMB231, 1 µM | 0.693 | 0.67 | 0.585 | 0.584 | 0.528 | 0.508 | 0.476 | 0.476 | 0.475
MDAMB231, 10 µM | 0.7265 | 0.7418 | 0.586 | 0.625 | 0.5941 | 0.553 | 0.522 | 0.534 | 0.528
MDAMB231, 100 µM | 0.6004 | 0.573 | 0.624 | 0.554 | 0.542 | 0.585 | 0.594 | 0.647 | 0.651
MDAMB436, 0.1 µM | 0.847 | 0.787 | 0.747 | 0.674 | 0.658 | 0.655 | 0.656 | 0.657 | 0.655
MDAMB436, 1 µM | 0.802 | 0.7362 | 0.7194 | 0.665 | 0.642 | 0.632 | 0.618 | 0.62 | 0.62
MDAMB436, 10 µM | 0.865 | 0.801 | 0.775 | 0.707 | 0.6747 | 0.6699 | 0.664 | 0.659 | 0.659
MDAMB436, 100 µM | 0.7079 | 0.787 | 0.858 | 0.855 | 0.818 | 0.812 | 0.771 | 0.842 | 0.845

O=C(CCCCCCC(=O)Nc1ccccc1)NO [Vorinostat]
relative JC-1 red fluorescence
Conditions | 8 h | 16 h | 24 h | 32 h | 40 h | 48 h | 56 h | 64 h | 72 h
MDAMB231, 0.1 µM | 0.76368 | 0.7068 | 0.73 | 0.6557 | 0.6343 | 0.645 | 0.6201 | 0.6526 | 0.6785
MDAMB231, 1 µM | 0.725 | 0.705 | 0.578 | 0.625 | 0.607 | 0.592 | 0.575 | 0.6 | 0.61
MDAMB231, 10 µM | 0.718 | 0.672 | 0.615 | 0.643 | 0.635 | 0.642 | 0.631 | 0.673 | 0.674
MDAMB231, 100 µM | 0.7461 | 0.71 | 0.654 | 0.6361 | 0.621 | 0.632 | 0.612 | 0.637 | 0.636
MDAMB436, 0.1 µM | 0.8278 | 0.6874 | 0.6752 | 0.6145 | 0.5913 | 0.5747 | 0.5633 | 0.56 | 0.56
MDAMB436, 1 µM | 0.855 | 0.781 | 0.742 | 0.669 | 0.641 | 0.629 | 0.609 | 0.608 | 0.607
MDAMB436, 10 µM | 0.84174 | 0.7402 | 0.725 | 0.659 | 0.6285 | 0.605 | 0.603 | 0.601 | 0.595
MDAMB436, 100 µM | 0.8861 | 0.7577 | 0.7128 | 0.62 | 0.585 | 0.564 | 0.56 | 0.553 | 0.557
